The other results are listed elsewhere or left out. Many values rest on one well or one pass, so single values are uncertain.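 The apoptosis fraction was the count of cleaved-PARP antibody-stained nuclei relative to all DNA-stained nuclei, imaged in 1,536-well plates. Screening doses were set so most cells survived, and baseline and induced cleaved-PARP levels vary greatly across cell lines.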
How the values were obtained:
Test in all cases: cleaved PARP positive nuclei fraction relative to DMSO control; melanoma cells; higher = more apoptosis
Conditions in all cases: library dose: low library concentration; 72 h
[1] = test system: MZ2-MEL
[2] = test system: MeWo
[3] = test system: RPMI7951
[4] = test system: RVH-421
[5] = test system: SkMel28
[6] = test system: SkMel2
[7] = test system: SkMel30
[8] = test system: SkMel5
[9] = test system: UACC257
[10] = test system: UACC62
[11] = test system: WM115
[12] = test system: WM1716
[13] = test system: WM1745
[14] = test system: WM3526
[15] = test system: WM3619
[16] = test system: WM451Lu

Compound	cleaved PARP positive nuclei fraction [1] [%]	cleaved PARP positive nuclei fraction [2] [%]	cleaved PARP positive nuclei fraction [3] [%]	cleaved PARP positive nuclei fraction [4] [%]	cleaved PARP positive nuclei fraction [5] [%]	cleaved PARP positive nuclei fraction [6] [%]	cleaved PARP positive nuclei fraction [7] [%]	cleaved PARP positive nuclei fraction [8] [%]	cleaved PARP positive nuclei fraction [9] [%]	cleaved PARP positive nuclei fraction [10] [%]	cleaved PARP positive nuclei fraction [11] [%]	cleaved PARP positive nuclei fraction [12] [%]	cleaved PARP positive nuclei fraction [13] [%]	cleaved PARP positive nuclei fraction [14] [%]	cleaved PARP positive nuclei fraction [15] [%]	cleaved PARP positive nuclei fraction [16] [%]
C=C(c1ccc(C(=O)O)cc1)c1cc2c(cc1C)C(C)(C)CCC2(C)C [Bexarotene] + CN(C)S(=O)(=O)c1ccc2c(c1)/C(=C/c1cc3c([nH]1)CCCC3)C(=O)N2 [SU6656] (first compound 2 µM, partner dose 0.4 µM)	57.5	104	69	87.2	25.6	87.1	60	69.1	57.8	9.92	90.3	7.97	89.5	631	98.2	144
Nc1ccn([C@@H]2O[C@H](CO)[C@@H](O)C2(F)F)c(=O)n1 [gemcitabine] + COC(=O)c1sccc1S(=O)(=O)Nc1ccc(Nc2ccccc2)cc1OC [GSK0660] (first compound 0.0004 µM, partner dose 1 µM)	117	131	38.9	188	75.7	120	44.6	75.5	79.1	126	84.3	100	123	40.2	143	50.4
CCCS(=O)(=O)Nc1ccc(F)c(C(=O)c2c[nH]c3ncc(Cl)cc23)c1F + O=C(Nc1cccc(Cl)c1)Nc1ncc(CCNc2ncnc3ccsc23)s1 [SNS314] (first compound 0.08 µM, partner dose 0.0008 µM)	109	49.1	50.6	45.1	74	89.1	21.7	50.5	66.3	180	54	90.3	101	83.1	103	46.1
O=C(O)[C@@H]1[O][Sb](=[O])([O][Sb]2(=[O])[O][C@H]([C@H](O)CO)[C@H](O)[C@H](C(=O)O)[O]2)[O][C@H]([C@H](O)CO)[C@@H]1O (stereo partly specified) [stibogluconate] + COC(=O)c1sccc1S(=O)(=O)Nc1ccc(Nc2ccccc2)cc1OC [GSK0660] (first compound 2 µM, partner dose 1 µM)	106	103	126	68.8	147	42.9	26.2	67.8	284	78.6	46.4	127	83.9	132	72	59.5
Nc1nc(F)nc2c1ncn2[C@@H]1O[C@H](CO)[C@@H](O)[C@@H]1O [fludarabine] + Cc1cc(N2CCOCC2)cc2[nH]c(-c3c(NC[C@@H](O)c4cccc(Cl)c4)cc[nH]c3=O)nc12 [BMS536924] (first compound 0.2 µM, partner dose 0.2 µM)	107	726	43.9	49.2	167	318	1110	452	289	55.3	31.9	41	98.5	578	115	355
C[C@@H](Oc1cc(-c2cnn(C3CCNCC3)c2)cnc1N)c1c(Cl)ccc(F)c1Cl [Crizotinib] + CC(C)CCN1c2nc(Nc3cc(F)c(O)c(F)c3)ncc2N(C)C(=O)C1C [BID1870] (first compound 0.2 µM, partner dose 0.2 µM)	140	128	150	222	138	83.9	15.9	456	116	107	163	86.3	83.8	57.6	83.6	103
O=C(O)c1ccc2c(c1)nc(Nc1cccc(Cl)c1)c1ccncc12 + CCN(CC)CCCCNc1ncc2cc(-c3cc(OC)cc(OC)c3)c(NC(=O)NC(C)(C)C)nc2n1 [PD173074] (first compound 0.4 µM, partner dose 0.1 µM)	71.2	219	31.5	85.8	60.3	129	80.2	73.8	139	100	337	111	97.7	72.6	100	323
CC(C)C[C@H](NC(=O)[C@H](Cc1ccccc1)NC(=O)c1cnccn1)B(O)O [Bortezomib] + OCCn1cc(-c2cnc3nnn(Cc4ccc5ncccc5c4)c3n2)cn1 [PF04217903] (first compound 0.001 µM, partner dose 1 µM)	50.6	74.9	197	134	79.4	72.8	69.8	74	87.2	69.5	82.1	483	175	64.4	379	514
Nc1nc(F)nc2c1ncn2[C@@H]1O[C@H](CO)[C@@H](O)[C@@H]1O [fludarabine] + O=C1NC(=O)/C(=C/c2ccc(-c3ccc(F)cc3O)o2)S1 [AS252424] (first compound 0.2 µM, partner dose 1 µM)	142	749	71.9	57.4	39.8	416	2840	268	203	116	126	68	103	1700	103	681
C=C(c1ccc(C(=O)O)cc1)c1cc2c(cc1C)C(C)(C)CCC2(C)C [Bexarotene] + CN(NC(=O)CC(=O)NN(C)C(=S)c1ccccc1)C(=S)c1ccccc1 [STA4783] (first compound 2 µM, partner dose 0.006 µM)	105	255	172	107	140	42.7	128	190	162	146	101	194	303	275	471	843
O=C(O)c1ccc2c(c1)nc(Nc1cccc(Cl)c1)c1ccncc12 + COc1cc(N2CCC(N3CCN(C)CC3)CC2)ccc1Nc1ncc(Cl)c(Nc2ccccc2S(=O)(=O)C(C)C)n1 [NVP-TAE684] (first compound 0.4 µM, partner dose 0.08 µM)	138	172	90.2	39.7	146	157	89	131	376	117	38	280	95.9	53	99.7	27.3
